Measurements published in paper PMC11339338.
No constants are given. Whether binding was seen depends on the method and setting. In cells and extracts the contact can be indirect. Some entries that bind do so weakly or less than the wild type. For part of these data: Tags and fused reporters may be left off the sequences shown.

Chains of the proteins cited; added tags and fusions are not shown.
UniProt Q86U44: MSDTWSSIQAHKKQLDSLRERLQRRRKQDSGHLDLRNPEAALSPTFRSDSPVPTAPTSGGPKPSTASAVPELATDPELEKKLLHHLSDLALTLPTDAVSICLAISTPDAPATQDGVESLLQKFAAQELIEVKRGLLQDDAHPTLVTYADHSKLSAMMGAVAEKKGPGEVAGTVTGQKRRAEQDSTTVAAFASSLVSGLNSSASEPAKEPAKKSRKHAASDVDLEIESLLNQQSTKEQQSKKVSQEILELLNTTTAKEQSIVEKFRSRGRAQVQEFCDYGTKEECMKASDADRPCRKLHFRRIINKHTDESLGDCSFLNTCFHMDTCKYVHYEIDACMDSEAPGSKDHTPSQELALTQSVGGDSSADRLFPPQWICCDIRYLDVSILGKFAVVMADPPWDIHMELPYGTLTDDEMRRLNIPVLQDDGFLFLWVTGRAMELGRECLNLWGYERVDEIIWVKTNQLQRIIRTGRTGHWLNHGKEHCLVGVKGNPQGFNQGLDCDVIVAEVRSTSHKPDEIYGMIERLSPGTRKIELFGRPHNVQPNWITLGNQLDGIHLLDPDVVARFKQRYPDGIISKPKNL
UniProt Q9H5I1: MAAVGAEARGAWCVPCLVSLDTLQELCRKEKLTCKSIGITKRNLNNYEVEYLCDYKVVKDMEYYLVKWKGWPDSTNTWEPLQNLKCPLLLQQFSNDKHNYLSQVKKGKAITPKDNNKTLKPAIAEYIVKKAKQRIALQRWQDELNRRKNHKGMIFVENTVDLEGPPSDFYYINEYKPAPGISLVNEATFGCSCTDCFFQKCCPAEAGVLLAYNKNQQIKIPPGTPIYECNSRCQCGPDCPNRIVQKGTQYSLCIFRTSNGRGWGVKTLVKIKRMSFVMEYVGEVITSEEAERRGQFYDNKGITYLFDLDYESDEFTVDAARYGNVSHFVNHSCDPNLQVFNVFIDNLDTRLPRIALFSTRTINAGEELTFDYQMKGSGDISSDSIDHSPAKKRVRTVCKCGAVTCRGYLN
UniProt Q16531: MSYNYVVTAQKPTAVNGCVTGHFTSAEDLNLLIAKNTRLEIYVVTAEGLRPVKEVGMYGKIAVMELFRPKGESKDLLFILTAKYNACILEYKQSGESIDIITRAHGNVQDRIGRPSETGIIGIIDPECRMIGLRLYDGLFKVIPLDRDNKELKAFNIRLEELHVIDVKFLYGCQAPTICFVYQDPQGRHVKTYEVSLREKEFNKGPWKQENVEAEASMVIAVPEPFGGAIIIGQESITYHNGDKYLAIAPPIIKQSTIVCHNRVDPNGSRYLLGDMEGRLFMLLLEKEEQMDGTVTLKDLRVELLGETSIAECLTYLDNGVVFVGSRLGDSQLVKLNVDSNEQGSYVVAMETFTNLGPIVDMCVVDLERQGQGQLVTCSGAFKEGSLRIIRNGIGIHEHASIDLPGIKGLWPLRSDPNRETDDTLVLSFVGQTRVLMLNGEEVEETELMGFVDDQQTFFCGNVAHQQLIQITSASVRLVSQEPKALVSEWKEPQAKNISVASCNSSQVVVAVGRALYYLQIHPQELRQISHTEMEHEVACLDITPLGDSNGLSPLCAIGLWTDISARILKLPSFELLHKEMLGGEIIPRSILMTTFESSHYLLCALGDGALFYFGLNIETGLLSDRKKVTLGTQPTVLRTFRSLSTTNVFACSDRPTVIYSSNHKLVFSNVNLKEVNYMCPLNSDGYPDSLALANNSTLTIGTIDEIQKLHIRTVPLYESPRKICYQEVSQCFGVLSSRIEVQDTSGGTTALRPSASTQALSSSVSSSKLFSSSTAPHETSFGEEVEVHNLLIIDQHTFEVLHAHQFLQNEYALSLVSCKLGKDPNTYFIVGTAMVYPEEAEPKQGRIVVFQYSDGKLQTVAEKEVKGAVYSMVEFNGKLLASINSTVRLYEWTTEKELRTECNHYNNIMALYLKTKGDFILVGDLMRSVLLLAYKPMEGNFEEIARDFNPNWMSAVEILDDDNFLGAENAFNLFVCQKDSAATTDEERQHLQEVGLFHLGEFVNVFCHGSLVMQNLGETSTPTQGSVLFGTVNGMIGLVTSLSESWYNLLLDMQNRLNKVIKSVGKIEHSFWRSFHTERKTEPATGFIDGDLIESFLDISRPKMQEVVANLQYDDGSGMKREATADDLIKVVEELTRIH

B1: METTL14 (protein, UniProt Q9HCE5 1-456)
chain: MDSRLQEIRERQKLRRQLLAQQLGAESADSIGAVLNSKDEQREIAETRETCRASYDTSAPNAKRKYLDEGETDEDKMEEYKDELEMQQDEENLPYEEEIYKDSSTFLKGTQSLNPHNDYCQHFVDTGHRPQNFIRDVGLADRFEEYPKLRELIRLKDELIAKSNTPPMYLQADIEAFDIRELTPKFDVILLEPPLEEYYRETGITANEKCWTWDDIMKLEIDEIAAPRSFIFLWCGSGEGLDLGRVCLRKWGYRRCEDICWIKTNKNNPGKTKTLDPKAVFQRTKEHCLMGIKGTVKRSTDGDFIHANVDIDLIITEEPEIGNIEKPVEIFHIIEHFCLGRRRLHLFGRDSTIRPGWLTVGPTLTNSNYNAETYASYFSAPNSYLTGCTEEIERLRPKSPPPKSKSDRGGGAPRGGGRGGTSAGRGRERNRSNFRGERGGFRGGRGGAHRGGFPPR
B2: SUV39H1 (protein, UniProt O43463 1-412)
chain: MAENLKGCSVCCKSSWNQLQDLCRLAKLSCPALGISKRNLYDFEVEYLCDYKKIREQEYYLVKWRGYPDSESTWEPRQNLKCVRILKQFHKDLERELLRRHHRSKTPRHLDPSLANYLVQKAKQRRALRRWEQELNAKRSHLGRITVENEVDLDGPPRAFVYINEYRVGEGITLNQVAVGCECQDCLWAPTGGCCPGASLHKFAYNDQGQVRLRAGLPIYECNSRCRCGYDCPNRVVQKGIRYDLCIFRTDDGRGWGVRTLEKIRKNSFVMEYVGEIITSEEAERRGQIYDRQGATYLFDLDYVEDVYTVDAAYYGNISHFVNHSCDPNLQVYNVFIDNLDERLPRIAFFATRTIRAGEELTFDYNMQVDPVDMESTRMDSNFGLAGLPGSPKKRVRIECKCGTESCRKYLF

Legend:
[1] = molecular target: METTL3 (human (endogenous in H1 hESCs)) (UniProt Q86U44); assay: FRET or BRET; acceptor photobleaching FRET (FRET-AB, Leica SP8 STED) on fixed immunostained cells; Alexa Fluor 488 donor, Alexa Fluor 568 acceptor
[2] = molecular target: METTL3 (human (endogenous in H1 hESCs)) (UniProt Q86U44); assay: co-IP; anti-METTL3 antibody, protein A and G magnetic beads, whole cell extract of WT hESCs or METTL3−/− hESCs rescued by WT or mutant METTL3; 50 mM Tris-HCl pH 7.6, 150 mM KCl, 1 mM EDTA, 10% glycerol, 4 °C 16 h; also with RNase A treatment (interactions impaired)
[3] = molecular target: WT METTL3 (exogenous, in METTL3−/− hESCs rescued by WT METTL3) (UniProt Q86U44); assay: as above
FLAG-tagged SUV39H2 = FLAG-tagged SUV39H2 (UniProt Q9H5I1); assay: co-IP; 293T cells co-transfected with FLAG-SUV39H1 or FLAG-SUV39H2, MYC-ubiquitin and HA-METTL3; precipitated with anti-FLAG antibody, blots with anti-tag antibodies
FLAG-tagged SUV39H1 = molecular target: T1, FLAG-tagged SUV39H1 (UniProt O43463); assay: as above
T1 sequence: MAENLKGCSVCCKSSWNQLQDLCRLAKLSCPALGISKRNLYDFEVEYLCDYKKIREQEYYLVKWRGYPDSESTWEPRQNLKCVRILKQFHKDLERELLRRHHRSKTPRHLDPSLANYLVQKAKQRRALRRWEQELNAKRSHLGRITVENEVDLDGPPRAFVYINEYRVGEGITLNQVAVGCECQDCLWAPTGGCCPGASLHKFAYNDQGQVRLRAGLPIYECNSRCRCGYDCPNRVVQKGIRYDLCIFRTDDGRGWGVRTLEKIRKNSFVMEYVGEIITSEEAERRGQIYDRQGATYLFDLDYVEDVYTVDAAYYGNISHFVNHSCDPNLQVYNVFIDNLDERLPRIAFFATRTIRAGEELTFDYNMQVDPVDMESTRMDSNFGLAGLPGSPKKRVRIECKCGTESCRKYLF

[4] = molecular target: DDB1 (human (endogenous in H1 hESCs)) (UniProt Q16531); assay: co-IP; anti-DDB1 antibody, protein A and G magnetic beads, whole cell extract of WT hESCs or METTL3−/− hESCs rescued by WT or mutant METTL3; 50 mM Tris-HCl pH 7.6, 150 mM KCl, 1 mM EDTA, 10% glycerol, 4 °C 16 h; also WT hESCs treated with Actinomycin D for 3, 9, 24 h (interaction impaired)
[5] = molecular target: DDB1 (human (endogenous in H1 hESCs)) (UniProt Q16531); assay: FRET or BRET; acceptor photobleaching FRET (FRET-AB, Leica SP8 STED) on fixed immunostained cells; Alexa Fluor 488 donor, Alexa Fluor 568 acceptor

Molecule	binding [1]	binding [2]	binding [3]	binding [4]	also measured
DDB1 (from UniProt Q16531 1-1140)	binds	binds	binds	–	–
HA-tagged WT-METTL3 (from UniProt Q86U44 1-580)	–	–	–	–	binding (FLAG-tagged SUV39H2): binds; binding (FLAG-tagged SUV39H1): binds
METTL3 (from UniProt Q86U44 1-580)	–	–	–	binds	–
SUV39H2 (from UniProt Q9H5I1 1-410)	binds	binds	binds	–	–
WT METTL3 (exogenous, in METTL3−/− hESCs rescued by WT METTL3) (from UniProt Q86U44 1-580)	–	–	–	binds	–
B1	–	–	–	binds	binding [5]: binds
B2	binds	binds	binds	–	–
